Measurements reported in PubChem BioAssay AID1259405 (NCATS, 2018).

Assay: 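Knock-downs that lift recombinant protein yield in hamster ovary cells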 (primary screen)
Cells: Chinese hamster CHO-K1 ovary cells with stable secreted eGFP expression
Knock-down reagent: single siRNA against mouse genes, 0.8 pmol siRNA per well (2 µl of 400 nM stock)
Timing: 3 days
Read-out: 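Per-well intracellular GFP measured by laser scanning cytometry, plus viability from ATP luminescence, each relative to plate median of non-targeting control wells, in %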
Reading the numbers: GFP, % of control: higher = more GFP per well, higher productivity; viability (ATP), % of control: higher = more viable cells (more ATP)
Active means: 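Called active when intracellular GFP, relative to negative control, is at or above 120%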
Shown is an unselected part of about 50,000 deposited reagents. Over the whole deposit, about 4,000 (8%) were called active. 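Mouse siRNA library applied to hamster cells; one well for each siRNA.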 A number with no mark means an inactive call.

Zng1 (GeneID 226043) [SID363547157] scored GFP, % of control 44.3; viability (ATP), % of control 72.1. Knock-down of Zng1 (GeneID 226043) [SID363549969] resulted in: GFP, % of control 58.9; viability (ATP), % of control 96. Against Zng1 (GeneID 226043) [SID363588023] the deposit lists GFP, % of control 120; viability (ATP), % of control 122. Depletion of Dpcd (GeneID 226162) [SID363552325] resulted in: GFP, % of control 32.7; viability (ATP), % of control 43.5. After knock-down of Dpcd (GeneID 226162) [SID363585461], the record shows GFP, % of control 80.8; viability (ATP), % of control 94.1. Dpcd (GeneID 226162) [SID363585812] showed GFP, % of control 145 (active); viability (ATP), % of control 148.

Against Mboat1 (GeneID 218121) [SID363570609], the values are GFP, % of control 93.6; viability (ATP), % of control 104. Mboat1 (GeneID 218121) [SID363579409] scored GFP, % of control 69.7; viability (ATP), % of control 108. For Mboat1 (GeneID 218121) [SID363583281], the entry reads GFP, % of control 116; viability (ATP), % of control 133. Pgbd1 (GeneID 319207) [SID363542475] showed GFP, % of control 90.3; viability (ATP), % of control 72.1. With knock-down of Pgbd1 (GeneID 319207) [SID363551966] the results were GFP, % of control 49.2; viability (ATP), % of control 69. Against Pgbd1 (GeneID 319207) [SID363559571] the deposit lists GFP, % of control 82.9; viability (ATP), % of control 106.

Silencing of Gpbar1 (GeneID 227289) [SID363571097] gave: GFP, % of control 101; viability (ATP), % of control 71.4. Silencing of Gpbar1 (GeneID 227289) [SID363571449] came out at: GFP, % of control 102; viability (ATP), % of control 73.1. Gpbar1 (GeneID 227289) [SID363571801] showed GFP, % of control 126 (active); viability (ATP), % of control 90.8. Depletion of Apex2 (GeneID 77622) [SID363569889] came out at: GFP, % of control 78.4; viability (ATP), % of control 87.9. After knock-down of Apex2 (GeneID 77622) [SID363576929], the record shows GFP, % of control 108; viability (ATP), % of control 105. For Apex2 (GeneID 77622) [SID363578337], the values are GFP, % of control 88.4; viability (ATP), % of control 90.5.

With knock-down of Cd59b (GeneID 333883) [SID363541332] the results were GFP, % of control 54.1; viability (ATP), % of control 54.8. Against Cd59b (GeneID 333883) [SID363555959], the entry reads GFP, % of control 109; viability (ATP), % of control 89.4. Cd59b (GeneID 333883) [SID363566248] scored GFP, % of control 94.2; viability (ATP), % of control 77.2.

Targets above whose target name starts with C or c (3):
Cd59b (GeneID 333883) [SID363541332] | GFP, % of control: 54.1; viability (ATP), % of control: 54.8
Cd59b (GeneID 333883) [SID363555959] | GFP, % of control: 109; viability (ATP), % of control: 89.4
Cd59b (GeneID 333883) [SID363566248] | GFP, % of control: 94.2; viability (ATP), % of control: 77.2

Next results:
With knock-down of Sowaha (GeneID 237761) [SID363542697] the results were GFP, % of control 15.1; viability (ATP), % of control 15.7. With knock-down of Sowaha (GeneID 237761) [SID363546214], the screen gave GFP, % of control 102; viability (ATP), % of control 79.8. For Sowaha (GeneID 237761) [SID363547970], the values are GFP, % of control 80.8; viability (ATP), % of control 80.4. With knock-down of Spry3 (GeneID 236576) [SID363541792], the record shows GFP, % of control 34; viability (ATP), % of control 35.6. Spry3 (GeneID 236576) [SID363553384] scored GFP, % of control 108; viability (ATP), % of control 62.9. For Spry3 (GeneID 236576) [SID363566708] the deposit lists GFP, % of control 113; viability (ATP), % of control 90.8.

Against Trex2 (GeneID 24102) [SID363570240], the values are GFP, % of control 89.5; viability (ATP), % of control 96.2. Against Trex2 (GeneID 24102) [SID363576576], the values are GFP, % of control 90.4; viability (ATP), % of control 90.4. Against Trex2 (GeneID 24102) [SID363579744] the deposit lists GFP, % of control 30.5; viability (ATP), % of control 53.2. With knock-down of Wdr55 (GeneID 67936) [SID363543766], the record shows GFP, % of control 51.1; viability (ATP), % of control 55.9. Wdr55 (GeneID 67936) [SID363551502] scored GFP, % of control 48.6; viability (ATP), % of control 65.9. Knock-down of Wdr55 (GeneID 67936) [SID363559107] came out at: GFP, % of control 73.3; viability (ATP), % of control 72.4.

Knock-down of Dlx1 (GeneID 13390) [SID363545886] gave: GFP, % of control 26.7; viability (ATP), % of control 57.9. After knock-down of Dlx1 (GeneID 13390) [SID363549399] the results were GFP, % of control 47.3; viability (ATP), % of control 38.9. With knock-down of Dlx1 (GeneID 13390) [SID363563205] the results were GFP, % of control 84.8; viability (ATP), % of control 68.1. For Mtdh (GeneID 67154) [SID363562319] the deposit lists GFP, % of control 37; viability (ATP), % of control 66.7. For Mtdh (GeneID 67154) [SID363567457] the deposit lists GFP, % of control 46.1; viability (ATP), % of control 83.4. For Mtdh (GeneID 67154) [SID363584814], the values are GFP, % of control 89.7; viability (ATP), % of control 61.8.

Against Ciao2a (GeneID 68250) [SID363552206] the deposit lists GFP, % of control 73.8; viability (ATP), % of control 36.9. Ciao2a (GeneID 68250) [SID363585342] scored GFP, % of control 88; viability (ATP), % of control 90.7. With knock-down of Ciao2a (GeneID 68250) [SID363585693], the record shows GFP, % of control 96.8; viability (ATP), % of control 113.
